This note sets out measurements from paper PMC7892437 (Frontiers in Pharmacology, 2021).

What is called IC50 is the concentration that inhibits the measured activity by half.

Data set [1] relates to SARS-CoV-2 BetaCoV/Shenzhen/SZTH-003/2020 strain. The class given is cell-based.
Data set [2] has as its system BHK21-hACE2 cells.
Data set [3] has as its system VSV-SARS-CoV-2-Sdel18 pseudovirus. The class given is cell-based.

SMILES strings stand for the structures. Read-outs that look alike come from different tables or passages of the source.

As for `CN1C[C@@H]2c3ccccc3Oc3ccc(Cl)cc3[C@H]2C1.Cl` (racemic) [Asenapine (hydrochloride)], the IC50 in data set [1] stood at 16.7 µM; in data set [3] (read-out: Co-treatment IC50), 28.1 µM; in data set [3] (read-out: IC50), 12.9 µM; in data set [3] (read-out: Pre-treatment IC50), 17.7 µM. The “inhibitory effect relative to Chloroquine diphosphate” value in data set [1] is on record as “slightly less effective”. In addition, the “cytotoxicity compared with the other selected drugs” value in data set [2] is listed as “lowest cytotoxicity”.
